Consider 1 substance from paper PMC3419192.

Amino acid sequences for entries named in this document (tags omitted).
UniProt P23804: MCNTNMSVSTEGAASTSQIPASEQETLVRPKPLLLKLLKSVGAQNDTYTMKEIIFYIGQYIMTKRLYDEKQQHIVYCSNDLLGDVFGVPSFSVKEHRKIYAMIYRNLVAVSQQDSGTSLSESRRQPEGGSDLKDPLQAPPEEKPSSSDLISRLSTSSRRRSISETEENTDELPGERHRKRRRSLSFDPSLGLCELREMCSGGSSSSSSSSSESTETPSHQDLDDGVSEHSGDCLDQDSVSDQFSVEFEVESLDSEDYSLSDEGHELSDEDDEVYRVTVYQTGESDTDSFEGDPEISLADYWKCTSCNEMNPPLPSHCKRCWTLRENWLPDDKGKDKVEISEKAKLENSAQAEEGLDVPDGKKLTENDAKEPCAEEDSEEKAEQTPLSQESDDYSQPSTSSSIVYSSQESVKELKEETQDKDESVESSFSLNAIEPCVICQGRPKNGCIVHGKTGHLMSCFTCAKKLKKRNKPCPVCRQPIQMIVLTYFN

These are yes or no findings as the source states them, for the method shown. In cells and extracts the contact can be indirect. Some binding calls cover weakened binding; strength is not graded here. Sequences can lack the tags named with a protein.

For experiment [1], the target named is T1, FLAG-necdin, full-length (pCMV-FLAG-Necdin) (UniProt P25233).
T1 sequence: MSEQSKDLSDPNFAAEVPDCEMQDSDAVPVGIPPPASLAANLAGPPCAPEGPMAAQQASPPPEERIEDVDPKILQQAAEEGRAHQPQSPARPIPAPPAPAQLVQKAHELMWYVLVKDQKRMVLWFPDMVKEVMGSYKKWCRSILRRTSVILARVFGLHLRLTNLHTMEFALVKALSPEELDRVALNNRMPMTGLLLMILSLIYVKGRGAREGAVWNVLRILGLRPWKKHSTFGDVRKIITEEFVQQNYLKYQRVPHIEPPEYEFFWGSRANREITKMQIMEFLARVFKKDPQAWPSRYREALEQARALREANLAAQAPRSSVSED
As to the kind of experiment: co-IP; Dynabeads Protein A with anti-CCAR1, anti-MDM2, anti-necdin or unspecific IgG; 1.5 mg extract of C2C12 transfected with pCMV-FLAG-Necdin, pCMV-Tag3b-Myc-MDM2 and pSG5-HA-CCAR1, or of Tibialis anterior of tgMlcNec mice, 5 h at 4 °C; western blot.

For experiment [2], the target named is T2, HA-CCAR1 (pSG5-HA-CCAR1) (UniProt Q8CH18).
T2 sequence: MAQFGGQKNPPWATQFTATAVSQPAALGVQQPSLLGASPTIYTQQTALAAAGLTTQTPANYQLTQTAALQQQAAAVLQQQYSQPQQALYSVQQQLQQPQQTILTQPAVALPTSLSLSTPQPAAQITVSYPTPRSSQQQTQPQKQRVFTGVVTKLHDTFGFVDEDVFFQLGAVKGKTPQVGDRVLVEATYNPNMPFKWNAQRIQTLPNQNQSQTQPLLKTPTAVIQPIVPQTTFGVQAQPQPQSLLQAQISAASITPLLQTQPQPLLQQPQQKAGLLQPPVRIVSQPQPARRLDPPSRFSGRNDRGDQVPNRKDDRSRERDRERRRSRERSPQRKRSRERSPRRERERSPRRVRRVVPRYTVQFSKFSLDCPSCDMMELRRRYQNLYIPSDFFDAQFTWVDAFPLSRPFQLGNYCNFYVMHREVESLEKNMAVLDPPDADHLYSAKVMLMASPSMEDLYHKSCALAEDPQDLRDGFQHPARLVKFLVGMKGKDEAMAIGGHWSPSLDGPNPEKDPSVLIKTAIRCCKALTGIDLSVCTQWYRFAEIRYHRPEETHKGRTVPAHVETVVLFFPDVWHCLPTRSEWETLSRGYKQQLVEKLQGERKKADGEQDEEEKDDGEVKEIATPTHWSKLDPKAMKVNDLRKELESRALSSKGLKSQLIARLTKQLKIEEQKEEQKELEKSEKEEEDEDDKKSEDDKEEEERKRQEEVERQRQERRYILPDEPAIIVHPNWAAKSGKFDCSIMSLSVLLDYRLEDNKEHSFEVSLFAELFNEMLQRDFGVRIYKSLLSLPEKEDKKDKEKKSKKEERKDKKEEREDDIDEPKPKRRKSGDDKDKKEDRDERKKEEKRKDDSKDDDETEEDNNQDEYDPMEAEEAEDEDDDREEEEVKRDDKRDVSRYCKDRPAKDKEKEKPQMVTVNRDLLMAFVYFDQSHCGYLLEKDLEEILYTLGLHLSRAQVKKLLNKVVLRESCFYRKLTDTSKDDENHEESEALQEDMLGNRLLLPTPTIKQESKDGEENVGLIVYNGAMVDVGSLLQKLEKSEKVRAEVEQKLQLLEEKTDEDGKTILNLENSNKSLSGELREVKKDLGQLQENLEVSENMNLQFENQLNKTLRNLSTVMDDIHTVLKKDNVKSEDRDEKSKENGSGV
Described as above.

Consider “Myc-MDM2, full-length (pCMV-Tag3b-Myc-MDM2) (from UniProt P23804 1-489)”, for which the binding result in experiment [1] and in experiment [2] was “binds” each time.
